No constants are given. Whether binding was seen depends on the method and setting. In cells and extracts the contact can be indirect. Some entries that bind do so weakly or less than the wild type. Blank lines part the entries; values can stand above or below the molecule they belong to.
What was measured:
[1] = target: T1, Sin3a (endogenous) (mouse (endogenous in reprogramming OG-MEFs)) (UniProt Q60520); test: co-IP; endogenous proteins in lysate of reprogramming cells (Day 5 for Sin3a-Tet1); 1% Triton X-100, 50 mM Tris-HCl pH 7.4, 150 mM NaCl; antibody overnight at 4 °C, protein A/protein G affinity gel; western blotting; rabbit IgG as negative control
T1 sequence: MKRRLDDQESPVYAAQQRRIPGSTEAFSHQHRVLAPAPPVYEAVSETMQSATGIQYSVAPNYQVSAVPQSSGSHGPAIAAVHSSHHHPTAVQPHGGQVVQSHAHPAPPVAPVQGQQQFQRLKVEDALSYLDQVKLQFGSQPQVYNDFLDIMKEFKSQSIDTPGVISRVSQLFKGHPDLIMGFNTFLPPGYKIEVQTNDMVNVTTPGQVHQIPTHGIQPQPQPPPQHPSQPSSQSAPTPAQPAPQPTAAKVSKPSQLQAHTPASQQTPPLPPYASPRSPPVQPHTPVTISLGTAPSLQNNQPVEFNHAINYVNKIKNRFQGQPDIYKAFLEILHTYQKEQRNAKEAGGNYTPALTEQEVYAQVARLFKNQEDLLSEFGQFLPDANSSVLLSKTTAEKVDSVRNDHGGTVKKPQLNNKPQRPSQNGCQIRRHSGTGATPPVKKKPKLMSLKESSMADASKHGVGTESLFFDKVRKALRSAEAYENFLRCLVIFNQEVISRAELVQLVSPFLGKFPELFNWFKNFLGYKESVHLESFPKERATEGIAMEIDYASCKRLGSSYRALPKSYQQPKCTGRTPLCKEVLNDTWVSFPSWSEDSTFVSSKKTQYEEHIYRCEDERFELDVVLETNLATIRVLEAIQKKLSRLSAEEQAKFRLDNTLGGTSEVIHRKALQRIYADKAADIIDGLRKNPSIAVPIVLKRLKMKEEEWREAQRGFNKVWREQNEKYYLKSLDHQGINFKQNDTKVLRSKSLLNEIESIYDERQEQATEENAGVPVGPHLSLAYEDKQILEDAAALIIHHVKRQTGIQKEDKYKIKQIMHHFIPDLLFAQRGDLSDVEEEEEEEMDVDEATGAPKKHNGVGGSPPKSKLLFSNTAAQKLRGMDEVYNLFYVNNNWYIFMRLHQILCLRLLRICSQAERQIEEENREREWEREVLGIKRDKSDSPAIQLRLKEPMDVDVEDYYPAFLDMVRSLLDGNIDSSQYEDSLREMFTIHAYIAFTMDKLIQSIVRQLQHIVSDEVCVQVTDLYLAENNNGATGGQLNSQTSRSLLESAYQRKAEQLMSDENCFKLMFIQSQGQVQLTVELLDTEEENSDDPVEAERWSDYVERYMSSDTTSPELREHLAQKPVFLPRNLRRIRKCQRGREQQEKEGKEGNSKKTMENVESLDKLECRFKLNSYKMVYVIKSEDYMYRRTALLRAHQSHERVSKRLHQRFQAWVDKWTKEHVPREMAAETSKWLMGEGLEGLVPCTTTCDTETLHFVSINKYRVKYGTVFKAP

Sequences of proteins named here, by UniProt entry; tags and fusion partners are left off.
UniProt Q3URK3: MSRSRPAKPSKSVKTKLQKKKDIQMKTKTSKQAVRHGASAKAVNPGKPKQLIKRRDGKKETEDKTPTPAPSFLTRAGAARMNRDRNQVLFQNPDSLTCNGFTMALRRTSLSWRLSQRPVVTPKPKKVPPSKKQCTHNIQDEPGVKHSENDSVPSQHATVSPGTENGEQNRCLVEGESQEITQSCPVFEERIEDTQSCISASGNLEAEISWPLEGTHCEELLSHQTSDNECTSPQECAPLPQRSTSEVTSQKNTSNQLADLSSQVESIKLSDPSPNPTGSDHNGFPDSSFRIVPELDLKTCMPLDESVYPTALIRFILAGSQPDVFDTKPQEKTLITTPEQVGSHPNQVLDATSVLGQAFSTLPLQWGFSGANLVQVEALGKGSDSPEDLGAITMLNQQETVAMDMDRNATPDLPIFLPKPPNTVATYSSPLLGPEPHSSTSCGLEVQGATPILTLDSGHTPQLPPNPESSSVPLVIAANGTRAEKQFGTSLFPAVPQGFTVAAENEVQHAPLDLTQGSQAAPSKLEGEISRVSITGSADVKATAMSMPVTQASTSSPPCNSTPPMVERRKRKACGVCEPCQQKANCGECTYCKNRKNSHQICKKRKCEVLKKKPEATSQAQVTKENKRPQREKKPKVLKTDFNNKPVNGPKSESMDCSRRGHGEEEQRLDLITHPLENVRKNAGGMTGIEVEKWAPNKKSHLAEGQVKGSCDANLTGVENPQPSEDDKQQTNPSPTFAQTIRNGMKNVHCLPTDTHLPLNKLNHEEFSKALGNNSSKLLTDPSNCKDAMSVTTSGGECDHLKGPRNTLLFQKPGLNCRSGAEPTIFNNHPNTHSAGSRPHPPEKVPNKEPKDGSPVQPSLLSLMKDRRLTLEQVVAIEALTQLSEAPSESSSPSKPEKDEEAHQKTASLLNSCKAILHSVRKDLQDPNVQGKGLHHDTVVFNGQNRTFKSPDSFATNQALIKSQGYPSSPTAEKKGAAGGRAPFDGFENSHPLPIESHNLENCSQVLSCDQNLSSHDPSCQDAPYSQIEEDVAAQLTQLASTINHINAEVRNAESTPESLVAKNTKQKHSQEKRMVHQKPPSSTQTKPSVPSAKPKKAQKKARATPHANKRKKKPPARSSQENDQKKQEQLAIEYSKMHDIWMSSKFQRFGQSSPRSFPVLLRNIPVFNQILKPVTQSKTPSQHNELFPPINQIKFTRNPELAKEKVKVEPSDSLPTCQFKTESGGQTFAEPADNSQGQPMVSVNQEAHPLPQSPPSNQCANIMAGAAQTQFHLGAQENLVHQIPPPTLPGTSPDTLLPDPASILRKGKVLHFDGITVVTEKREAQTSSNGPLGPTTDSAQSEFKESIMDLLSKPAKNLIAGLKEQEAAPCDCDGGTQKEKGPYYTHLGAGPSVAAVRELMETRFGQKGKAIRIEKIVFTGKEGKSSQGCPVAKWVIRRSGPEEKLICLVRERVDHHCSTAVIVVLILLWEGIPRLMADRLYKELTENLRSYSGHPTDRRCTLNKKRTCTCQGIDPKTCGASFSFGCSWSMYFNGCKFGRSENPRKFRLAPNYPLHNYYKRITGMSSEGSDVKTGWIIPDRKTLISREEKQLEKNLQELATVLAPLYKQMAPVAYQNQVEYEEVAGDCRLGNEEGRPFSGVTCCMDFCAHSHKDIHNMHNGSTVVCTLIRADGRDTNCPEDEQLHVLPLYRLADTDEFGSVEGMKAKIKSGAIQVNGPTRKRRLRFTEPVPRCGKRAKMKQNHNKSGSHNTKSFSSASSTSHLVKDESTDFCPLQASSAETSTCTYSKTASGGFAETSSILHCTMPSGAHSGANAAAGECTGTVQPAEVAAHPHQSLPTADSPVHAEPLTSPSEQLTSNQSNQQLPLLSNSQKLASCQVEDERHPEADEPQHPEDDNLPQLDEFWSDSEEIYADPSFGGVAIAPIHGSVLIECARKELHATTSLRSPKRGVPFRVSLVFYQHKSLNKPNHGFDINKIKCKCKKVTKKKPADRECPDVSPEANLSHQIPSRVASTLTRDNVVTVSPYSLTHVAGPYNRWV
UniProt O09106: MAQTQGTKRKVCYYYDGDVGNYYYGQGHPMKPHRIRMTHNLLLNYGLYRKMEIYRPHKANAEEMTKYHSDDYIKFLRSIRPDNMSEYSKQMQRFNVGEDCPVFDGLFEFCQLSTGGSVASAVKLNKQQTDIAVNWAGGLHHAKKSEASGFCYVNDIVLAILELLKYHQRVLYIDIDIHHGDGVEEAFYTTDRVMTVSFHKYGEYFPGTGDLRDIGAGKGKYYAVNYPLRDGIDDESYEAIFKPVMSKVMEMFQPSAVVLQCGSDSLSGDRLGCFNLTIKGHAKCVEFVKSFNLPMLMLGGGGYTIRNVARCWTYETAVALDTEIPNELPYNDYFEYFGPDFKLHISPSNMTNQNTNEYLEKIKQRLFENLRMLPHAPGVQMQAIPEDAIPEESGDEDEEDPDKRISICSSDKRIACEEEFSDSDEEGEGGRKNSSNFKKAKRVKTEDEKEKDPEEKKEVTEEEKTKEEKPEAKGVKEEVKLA

[2] = target: Tet1 (endogenous) (mouse (endogenous in reprogramming OG-MEFs)) (UniProt Q3URK3); test: as above

- binding [1]: binds
Molecule: HDAC1 (endogenous) (from UniProt O09106 1-482)

- binding [1]: binds
Molecule: Tet1 (endogenous) (from UniProt Q3URK3 1-2039)

- binding [2]: binds
B1: Sin3a (endogenous) (protein, UniProt Q60520 1-1274)
chain: T1 sequence
